Measurements: US20120035244A1, “PARP1 TARGETED THERAPY” (THE REGENTS OF THE UNIVERSITY OF MICHIGAN, priority 2010, published 2012)
No constants are given. Whether binding was seen depends on the method and setting. Some binding calls cover weakened binding; strength is not graded here. For part of these data: Tags and fused reporters may be left off the sequences shown.

By UniProt entry, the sequences of proteins in these tests, tags left out. Residues count along the entry.
UniProt P78527: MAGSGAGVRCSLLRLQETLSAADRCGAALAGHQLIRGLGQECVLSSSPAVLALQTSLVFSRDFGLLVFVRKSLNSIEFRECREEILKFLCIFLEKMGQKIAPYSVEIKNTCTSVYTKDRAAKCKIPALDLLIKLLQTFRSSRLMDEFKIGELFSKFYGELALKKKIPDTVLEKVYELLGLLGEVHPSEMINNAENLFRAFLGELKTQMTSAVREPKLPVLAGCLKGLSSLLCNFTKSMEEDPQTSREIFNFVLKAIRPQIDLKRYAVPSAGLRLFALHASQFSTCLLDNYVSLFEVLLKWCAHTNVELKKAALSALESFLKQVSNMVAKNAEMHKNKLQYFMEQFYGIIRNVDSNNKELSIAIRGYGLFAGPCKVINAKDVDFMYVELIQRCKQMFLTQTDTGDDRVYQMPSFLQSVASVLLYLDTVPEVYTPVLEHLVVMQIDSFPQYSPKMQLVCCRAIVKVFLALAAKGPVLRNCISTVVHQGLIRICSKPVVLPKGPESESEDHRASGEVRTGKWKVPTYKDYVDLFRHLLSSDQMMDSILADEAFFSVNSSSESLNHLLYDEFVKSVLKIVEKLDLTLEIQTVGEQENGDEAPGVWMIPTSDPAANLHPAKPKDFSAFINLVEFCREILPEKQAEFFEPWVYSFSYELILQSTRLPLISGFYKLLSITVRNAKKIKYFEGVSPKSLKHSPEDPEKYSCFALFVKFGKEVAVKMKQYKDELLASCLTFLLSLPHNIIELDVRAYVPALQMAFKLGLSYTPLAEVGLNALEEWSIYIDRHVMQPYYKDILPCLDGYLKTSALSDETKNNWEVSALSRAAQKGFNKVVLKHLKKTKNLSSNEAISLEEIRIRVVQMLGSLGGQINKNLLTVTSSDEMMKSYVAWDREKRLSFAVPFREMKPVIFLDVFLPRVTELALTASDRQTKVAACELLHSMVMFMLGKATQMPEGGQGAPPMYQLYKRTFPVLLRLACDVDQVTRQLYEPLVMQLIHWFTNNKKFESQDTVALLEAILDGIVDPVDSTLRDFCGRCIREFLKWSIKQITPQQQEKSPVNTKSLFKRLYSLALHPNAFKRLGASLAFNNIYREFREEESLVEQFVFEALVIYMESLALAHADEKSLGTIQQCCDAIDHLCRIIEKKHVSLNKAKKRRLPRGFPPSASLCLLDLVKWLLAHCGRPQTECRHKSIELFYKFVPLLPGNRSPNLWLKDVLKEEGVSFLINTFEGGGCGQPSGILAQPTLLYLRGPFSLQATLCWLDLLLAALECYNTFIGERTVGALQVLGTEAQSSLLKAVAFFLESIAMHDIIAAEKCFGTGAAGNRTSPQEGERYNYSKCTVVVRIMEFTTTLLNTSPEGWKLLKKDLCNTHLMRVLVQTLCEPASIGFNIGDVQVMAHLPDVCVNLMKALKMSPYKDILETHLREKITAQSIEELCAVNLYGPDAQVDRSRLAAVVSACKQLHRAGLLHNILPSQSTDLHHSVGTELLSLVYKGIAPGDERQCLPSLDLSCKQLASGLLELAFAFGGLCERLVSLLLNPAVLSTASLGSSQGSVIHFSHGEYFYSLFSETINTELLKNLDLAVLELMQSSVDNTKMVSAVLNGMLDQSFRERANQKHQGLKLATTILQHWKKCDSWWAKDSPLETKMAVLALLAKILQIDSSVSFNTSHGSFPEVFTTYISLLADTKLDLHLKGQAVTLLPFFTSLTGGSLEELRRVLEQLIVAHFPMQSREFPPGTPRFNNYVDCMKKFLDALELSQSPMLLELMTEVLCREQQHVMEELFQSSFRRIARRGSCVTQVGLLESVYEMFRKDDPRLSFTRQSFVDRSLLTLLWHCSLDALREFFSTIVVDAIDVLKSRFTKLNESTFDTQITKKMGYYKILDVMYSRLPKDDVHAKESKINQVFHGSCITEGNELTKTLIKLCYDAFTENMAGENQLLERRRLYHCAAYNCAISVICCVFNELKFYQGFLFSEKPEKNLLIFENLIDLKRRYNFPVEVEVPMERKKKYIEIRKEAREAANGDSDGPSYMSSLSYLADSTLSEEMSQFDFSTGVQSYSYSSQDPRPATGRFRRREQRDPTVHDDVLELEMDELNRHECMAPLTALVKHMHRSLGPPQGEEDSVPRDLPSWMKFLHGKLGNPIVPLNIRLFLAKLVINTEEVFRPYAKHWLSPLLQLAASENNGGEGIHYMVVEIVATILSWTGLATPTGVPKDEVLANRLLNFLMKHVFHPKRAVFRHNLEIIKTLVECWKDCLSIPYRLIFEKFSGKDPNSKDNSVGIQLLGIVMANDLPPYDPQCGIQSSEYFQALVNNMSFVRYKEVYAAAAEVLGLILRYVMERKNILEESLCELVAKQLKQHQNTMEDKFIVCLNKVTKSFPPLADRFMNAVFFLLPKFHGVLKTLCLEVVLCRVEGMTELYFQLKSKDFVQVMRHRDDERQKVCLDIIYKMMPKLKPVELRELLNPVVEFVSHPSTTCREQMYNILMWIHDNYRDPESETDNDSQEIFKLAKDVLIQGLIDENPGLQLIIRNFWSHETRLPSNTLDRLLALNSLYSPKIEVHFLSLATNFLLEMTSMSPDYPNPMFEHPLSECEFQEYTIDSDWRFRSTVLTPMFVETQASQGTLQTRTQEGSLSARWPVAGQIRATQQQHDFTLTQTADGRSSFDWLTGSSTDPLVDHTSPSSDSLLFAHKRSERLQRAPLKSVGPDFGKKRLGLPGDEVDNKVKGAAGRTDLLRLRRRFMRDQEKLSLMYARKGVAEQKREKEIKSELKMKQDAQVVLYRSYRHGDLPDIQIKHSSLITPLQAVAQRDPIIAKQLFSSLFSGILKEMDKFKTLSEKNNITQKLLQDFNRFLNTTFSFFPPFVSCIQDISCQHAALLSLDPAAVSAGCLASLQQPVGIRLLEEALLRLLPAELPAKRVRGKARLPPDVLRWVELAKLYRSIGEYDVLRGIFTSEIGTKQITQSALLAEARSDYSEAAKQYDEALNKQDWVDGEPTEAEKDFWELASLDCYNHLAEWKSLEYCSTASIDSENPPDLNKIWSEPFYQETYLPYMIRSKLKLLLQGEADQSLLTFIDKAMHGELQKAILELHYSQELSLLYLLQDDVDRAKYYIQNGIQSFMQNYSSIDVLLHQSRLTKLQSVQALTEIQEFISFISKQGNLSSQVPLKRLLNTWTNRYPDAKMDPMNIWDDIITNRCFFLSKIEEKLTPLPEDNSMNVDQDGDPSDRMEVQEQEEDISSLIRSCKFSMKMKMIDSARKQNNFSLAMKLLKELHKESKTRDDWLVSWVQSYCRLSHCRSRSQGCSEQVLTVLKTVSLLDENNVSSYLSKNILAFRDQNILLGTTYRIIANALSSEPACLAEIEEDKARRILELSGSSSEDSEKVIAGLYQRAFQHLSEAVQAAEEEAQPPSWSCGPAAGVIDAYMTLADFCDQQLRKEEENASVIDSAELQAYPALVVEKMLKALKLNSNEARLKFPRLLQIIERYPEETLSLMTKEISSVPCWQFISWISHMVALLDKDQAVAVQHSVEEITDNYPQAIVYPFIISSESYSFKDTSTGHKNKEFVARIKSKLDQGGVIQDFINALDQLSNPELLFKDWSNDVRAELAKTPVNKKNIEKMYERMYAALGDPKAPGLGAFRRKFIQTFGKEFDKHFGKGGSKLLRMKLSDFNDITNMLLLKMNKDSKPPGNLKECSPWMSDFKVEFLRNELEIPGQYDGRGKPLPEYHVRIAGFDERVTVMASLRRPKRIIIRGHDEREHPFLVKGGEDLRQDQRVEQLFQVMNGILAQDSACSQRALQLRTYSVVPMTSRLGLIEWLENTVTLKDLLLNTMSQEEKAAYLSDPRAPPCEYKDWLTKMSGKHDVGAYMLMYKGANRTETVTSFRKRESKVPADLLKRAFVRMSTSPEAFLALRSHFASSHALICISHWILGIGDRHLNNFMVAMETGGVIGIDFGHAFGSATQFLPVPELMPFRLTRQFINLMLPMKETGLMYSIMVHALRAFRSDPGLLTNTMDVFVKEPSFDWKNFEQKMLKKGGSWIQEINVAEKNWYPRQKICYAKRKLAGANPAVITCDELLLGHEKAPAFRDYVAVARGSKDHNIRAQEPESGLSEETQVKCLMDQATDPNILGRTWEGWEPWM
UniProt P09874, residues 2-1014: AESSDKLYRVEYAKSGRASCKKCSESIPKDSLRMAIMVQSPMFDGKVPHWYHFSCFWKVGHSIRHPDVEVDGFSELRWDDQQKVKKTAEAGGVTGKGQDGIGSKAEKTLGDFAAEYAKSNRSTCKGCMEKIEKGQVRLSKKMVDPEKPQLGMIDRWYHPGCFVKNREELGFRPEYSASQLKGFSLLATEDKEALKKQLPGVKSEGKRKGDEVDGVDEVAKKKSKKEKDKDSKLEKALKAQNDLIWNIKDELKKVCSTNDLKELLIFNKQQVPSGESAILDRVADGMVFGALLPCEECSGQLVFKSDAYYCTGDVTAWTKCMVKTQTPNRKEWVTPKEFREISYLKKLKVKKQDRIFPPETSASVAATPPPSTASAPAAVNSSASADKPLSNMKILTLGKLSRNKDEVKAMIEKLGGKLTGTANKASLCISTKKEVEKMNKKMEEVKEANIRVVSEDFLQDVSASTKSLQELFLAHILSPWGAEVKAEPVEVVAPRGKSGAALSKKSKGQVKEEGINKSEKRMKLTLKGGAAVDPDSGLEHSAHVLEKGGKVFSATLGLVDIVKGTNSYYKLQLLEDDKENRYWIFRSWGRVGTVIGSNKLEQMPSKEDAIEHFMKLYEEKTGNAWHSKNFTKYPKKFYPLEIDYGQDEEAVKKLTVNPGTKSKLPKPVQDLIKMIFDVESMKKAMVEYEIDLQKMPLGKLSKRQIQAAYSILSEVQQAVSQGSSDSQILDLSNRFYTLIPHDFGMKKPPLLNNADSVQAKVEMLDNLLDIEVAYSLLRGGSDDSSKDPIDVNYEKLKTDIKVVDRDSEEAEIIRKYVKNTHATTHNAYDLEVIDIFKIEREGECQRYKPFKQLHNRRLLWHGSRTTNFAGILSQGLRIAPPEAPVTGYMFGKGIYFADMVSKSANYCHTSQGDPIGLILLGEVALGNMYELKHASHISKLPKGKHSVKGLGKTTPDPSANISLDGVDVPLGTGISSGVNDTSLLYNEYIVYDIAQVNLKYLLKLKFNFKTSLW
UniProt P50549: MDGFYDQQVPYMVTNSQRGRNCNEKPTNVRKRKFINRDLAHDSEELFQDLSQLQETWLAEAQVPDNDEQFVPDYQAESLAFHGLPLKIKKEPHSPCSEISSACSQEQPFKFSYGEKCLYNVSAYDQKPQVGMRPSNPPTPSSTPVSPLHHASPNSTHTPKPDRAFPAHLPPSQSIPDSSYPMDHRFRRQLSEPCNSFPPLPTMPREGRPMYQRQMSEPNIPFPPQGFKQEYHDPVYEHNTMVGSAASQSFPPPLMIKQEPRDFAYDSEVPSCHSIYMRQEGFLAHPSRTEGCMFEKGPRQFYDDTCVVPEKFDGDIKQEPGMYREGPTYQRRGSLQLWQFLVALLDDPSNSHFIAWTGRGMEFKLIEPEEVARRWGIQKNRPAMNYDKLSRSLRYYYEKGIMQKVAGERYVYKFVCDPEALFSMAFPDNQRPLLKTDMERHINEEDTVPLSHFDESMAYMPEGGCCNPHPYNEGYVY

Experiments:
[1] = target: T1, ERG, TMPRSS2:ERG gene fusion product (TMPRSS2 exon 1 fused to ERG1 exon 2) (human) (UniProt P11308); test: IP with agarose-coupled PARP1 antibody from VCaP cells, Western blot (FIG. 9B)
T1 sequence (looked up): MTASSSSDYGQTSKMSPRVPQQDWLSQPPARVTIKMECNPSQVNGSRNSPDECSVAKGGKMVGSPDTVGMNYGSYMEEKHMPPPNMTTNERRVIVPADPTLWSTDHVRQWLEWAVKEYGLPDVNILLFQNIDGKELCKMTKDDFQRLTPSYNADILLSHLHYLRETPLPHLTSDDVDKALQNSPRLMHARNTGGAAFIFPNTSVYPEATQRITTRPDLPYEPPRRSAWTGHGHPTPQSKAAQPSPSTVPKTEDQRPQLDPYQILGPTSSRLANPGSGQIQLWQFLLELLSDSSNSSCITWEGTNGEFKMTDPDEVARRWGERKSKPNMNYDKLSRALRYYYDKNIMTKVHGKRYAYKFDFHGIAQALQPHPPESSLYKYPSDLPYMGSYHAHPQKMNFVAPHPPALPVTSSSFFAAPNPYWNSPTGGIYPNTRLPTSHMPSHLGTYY

[2] = target: DNA-dependent protein kinase catalytic subunit (DNA-PKcs) (human) (UniProt P78527); test: IP-Western in HEK293 cells transfected with ETV1-FLAG (FIG. 10)
[3] = target: poly-(ADP-ribose) polymerase (PARP1) (human) (UniProt P09874); test: as above

How did the binding [1] turn out when “poly-(ADP-ribose) polymerase (PARP1) (from UniProt P09874 2-1014) (enzyme)” was run?
Its binding is “binds”.

What does the source list for ETV1-FLAG (from UniProt P50549 1-477)?
binding [2]: binds; binding [3]: binds
